Test results published in article PMC6643034.

T1: P1126_AMBCA (Amblyomma cajennense)
T1 sequence: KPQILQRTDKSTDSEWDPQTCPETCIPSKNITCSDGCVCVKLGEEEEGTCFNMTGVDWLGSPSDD

T2: P1142_AMBCA (Amblyomma cajennense)
T2 sequence: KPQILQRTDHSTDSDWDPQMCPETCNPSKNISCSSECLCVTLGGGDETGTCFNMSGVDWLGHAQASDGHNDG


Key:
Experiment in all cases: BLI; cross-binding screen on OctetRed; evasin held on a nickel-coated biosensor through its C-terminal His tag; each human chemokine at 300 nM; both purified
[1] = biological target: P1101_IXORI (Ixodes ricinus)
[2] = biological target: T1, P1126_AMBCA (Amblyomma cajennense)
[3] = biological target: T2, P1142_AMBCA (Amblyomma cajennense)
[4] = biological target: P1170_IXORI (Ixodes ricinus)

Row | Binder | binding [1] | binding [2] | binding [3] | binding [4]
1 | CCL16 (ligand, UniProt O15467 24-120) QPKVPEWVNTPSTCCLKYYEKVLPRRLVVGYRKALNCHLPAIIFVTKRNREVCTNPNDDWVQEYIKDPNLPLLPTRNLSTVKIITAKNGQPQLLNSQ | no binding (tested: 300 nM) | no binding (tested: 300 nM) | no binding (tested: 300 nM) | no binding (tested: 300 nM)
2 | CCL1 (ligand, UniProt P22362 24-96) KSMQVPFSRCCFSFAEQEIPLRAILCYRNTSSICSNEGLIFKLKRGKEACALDTVGWVQRHRKMLRHCPSKRK | no binding (tested: 300 nM) | – | – | no binding (tested: 300 nM)
3 | CCL3L1 (ligand, UniProt P16619 24-93) APLAADTPTACCFSYTSRQIPQNFIADYFETSSQCSKPSVIFLTKRGRQVCADPSEEWVQKYVSDLELSA | no binding (tested: 300 nM) | – | – | no binding (tested: 300 nM)
4 | CCL22 (ligand, UniProt O00626 25-93) GPYGANMEDSVCCRDYVRYRLPLRVVKHFYWTSDSCPRPGVVLLTFRDKEICADPRVPWVKMILNKLSQ | no binding (tested: 300 nM) | – | – | no binding (tested: 300 nM)
5 | CCL4L1 (ligand, UniProt Q8NHW4 24-92) APMGSDPPTACCFSYTARKLPRNFVVDYYETSSLCSQPAVVFQTKRGKQVCADPSESWVQEYVYDLELN | no binding (tested: 300 nM) | – | – | no binding (tested: 300 nM)
6 | CCL24 (ligand, UniProt O00175 27-119) VVIPSPCCMFFVSKRIPENRVVSYQLSSRSTCLKAGVIFTTKKGQQFCGDPKQEWVQRYMKNLDAKQKKASPRARAVAVKGPVQRYPGNQTTC | no binding (tested: 300 nM) | – | – | no binding (tested: 300 nM)
7 | CCL27 (ligand, UniProt Q9Y4X3 25-112) FLLPPSTACCTQLYRKPLSDKLLRKVIQVELQEADGDCHLQAFVLHLAQRSICIHPQNPSLSQWFEHQERKLHGTLPKLNFGMLRKMG | no binding (tested: 300 nM) | – | – | no binding (tested: 300 nM)
8 | CCL18 (ligand, UniProt P55774 21-89) AQVGTNKELCCLVYTSWQIPQKFIVDYSETSPQCPKPGVILLTKRGRQICADPNKKWVQKYISDLKLNA | no binding (tested: 300 nM) | – | – | no binding (tested: 300 nM)
9 | CXCL14 (ligand, UniProt O95715 35-111) SKCKCSRKGPKIRYSDVKKLEMKPKYPHCEEKMVIITTKSVSRYRGQEHCLHPKLQSTKRFIKWYNAWNEKRRVYEE | no binding (tested: 300 nM) | – | – | no binding (tested: 300 nM)

Results are given in words; binding and its absence hold for the method and conditions named.
